Test results published in PubChem BioAssay (Tox21).
Inconclusive results, whose numbers are uncertain, are shown with a selection of clear calls. For part of these data: A potency beside an inconclusive call is a rough fit, not a confirmed value. Activity calls are given as the source filed them. Unless noted, calls follow the shape of the full dose curve.

By UniProt entry, the sequences of proteins in these tests, tags left out. Where a name states a change or a piece, a line headed by the entry shows the natural chain unless it says otherwise.
UniProt P28223, whole entry, looked up: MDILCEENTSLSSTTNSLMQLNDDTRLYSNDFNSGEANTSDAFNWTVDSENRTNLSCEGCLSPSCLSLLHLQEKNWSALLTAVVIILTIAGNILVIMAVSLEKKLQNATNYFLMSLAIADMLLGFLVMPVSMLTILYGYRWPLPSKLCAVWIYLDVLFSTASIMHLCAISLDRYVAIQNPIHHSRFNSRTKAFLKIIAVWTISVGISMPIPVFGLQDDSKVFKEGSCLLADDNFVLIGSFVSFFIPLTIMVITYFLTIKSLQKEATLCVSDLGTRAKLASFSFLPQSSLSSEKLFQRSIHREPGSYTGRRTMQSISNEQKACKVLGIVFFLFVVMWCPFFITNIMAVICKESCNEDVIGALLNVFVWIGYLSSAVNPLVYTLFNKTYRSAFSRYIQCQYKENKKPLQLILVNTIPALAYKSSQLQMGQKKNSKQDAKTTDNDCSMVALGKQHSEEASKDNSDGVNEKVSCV
UniProt P11229: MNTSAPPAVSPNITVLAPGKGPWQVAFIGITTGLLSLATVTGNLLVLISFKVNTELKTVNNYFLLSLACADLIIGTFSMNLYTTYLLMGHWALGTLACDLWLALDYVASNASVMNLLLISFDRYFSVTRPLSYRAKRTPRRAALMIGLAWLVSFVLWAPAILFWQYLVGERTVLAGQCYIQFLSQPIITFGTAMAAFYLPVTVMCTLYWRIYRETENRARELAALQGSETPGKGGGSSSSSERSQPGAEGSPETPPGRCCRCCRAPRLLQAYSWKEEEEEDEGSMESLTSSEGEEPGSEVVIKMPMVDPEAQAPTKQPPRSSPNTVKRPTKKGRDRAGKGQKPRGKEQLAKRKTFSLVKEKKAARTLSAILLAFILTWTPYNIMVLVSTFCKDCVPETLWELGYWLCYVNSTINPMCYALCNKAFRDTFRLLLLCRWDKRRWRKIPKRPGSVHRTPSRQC
UniProt P14416, whole entry, looked up: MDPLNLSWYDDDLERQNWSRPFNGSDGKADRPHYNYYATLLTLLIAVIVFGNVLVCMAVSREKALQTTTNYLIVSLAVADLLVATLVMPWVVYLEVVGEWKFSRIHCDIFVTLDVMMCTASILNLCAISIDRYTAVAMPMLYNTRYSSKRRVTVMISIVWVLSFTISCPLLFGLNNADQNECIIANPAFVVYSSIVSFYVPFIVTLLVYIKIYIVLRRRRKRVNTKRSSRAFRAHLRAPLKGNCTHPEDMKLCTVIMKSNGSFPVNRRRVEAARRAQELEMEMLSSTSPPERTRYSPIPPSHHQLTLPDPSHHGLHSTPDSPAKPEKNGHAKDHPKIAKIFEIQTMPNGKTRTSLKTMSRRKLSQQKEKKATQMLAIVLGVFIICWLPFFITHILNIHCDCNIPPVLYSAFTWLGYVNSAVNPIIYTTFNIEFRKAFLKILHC

Columns and labels:
[1] = p53 small molecule agonists, cell-based qHTS assay with human liver microsomes (AID 1963577); conditions: HCT-116 p53RE-bla with human liver microsomes, ratio, 16 h; activation: at 66 µM (top of the series) unless noted;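 as to activation: p53 response element beta-lactamase reporter cells with liver microsomes plus NADPH; % is scaled to controls: 0 for no effect and ±100 for the full control effect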
Method in brief: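 p53RE-bla cells; 5 h settle, 37 C/5% CO2; cpd + HLM 0.5 mg/mL + NADPH 0.5 mg/mL (final); 16 h 37 C; LiveBLAzer 2 h RT dark; fluorescence readout.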

[2] = p53 small molecule agonists, cell-based qHTS assay with human liver microsomes: qHTS cell viability counter screen (AID 1963579); also: nearly all actives have a fitted effect of over 45% in size
Method in brief: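 Luminescent CellTiter-Glo read-out, 30 min at room temperature, gauged cytotoxicity in p53RE-bla cells exposed 16 h at 37 C to DMSO-dissolved compounds with metabolic activation by human liver microsomes and NADPH, each 0.5 mg/mL final.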

[3] = cAMP Responsive Elements (CRE) small molecule antagonists, cell-based qHTS assay (AID 1963591; active = well fitted inhibition curve with a large enough effect in the signal ratio in the repeat runs, not every such curve was filed as active; inconclusive = weak or mixed curves, or effect the other way; the % refers to the signal ratio; as to activity change, negative = inhibition: % is scaled to controls: 0 for no effect and ±100 for the full control effect); conditions: CRE-bla HEK293T, beta-lactamase FRET ratio; activity change, negative = inhibition: at 92.4 µM (top of the series) unless noted
Method in brief: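 Antagonist mode: test compounds are co-incubated with the adenylyl cyclase activator NKH477 (0.25 uM final) on CRE-bla HEK293T cells for 3 h at 37 °C, followed by LiveBLAzer substrate loading.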

[4] = target: Beta-2 adrenergic receptor (Homo sapiens) (UniProt P07550); assay: Adrenergic beta2 receptor (ADRB2) small molecule agonists, cell-based qHTS assay (AID 1963593); conditions: CHO-ADRB2 cells, cAMP HTRF, 30 min;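 as to activation: CHO cells stably overexpressing human ADRB2; % is scaled to controls: 0 for no effect and ±100 for the full control effect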
Method in brief: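 CHO cells stably over-expressing ADRB2 were plated overnight at 37C, then dosed with compounds plus a stimulation mix containing 100uM IBMX and 25uM Ro-20-1724 for 0.5hr at room temperature. cAMP was measured by HTRF competition, 1hr.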

[5] = p53 small molecule agonists, cell-based qHTS assay with rat liver microsomes: qHTS cell viability counter screen (AID 1963580); also: nearly all actives have a fitted effect of over 45% in size
Method in brief: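 p53RE-bla HCT-116 cells were exposed 16 h at 37 C to compounds with rat liver microsomes (0.5 mg/mL) and NADPH (0.5 mg/mL). Viability was measured in the same wells as ATP content by CellTiter-Glo luminescence.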

[6] = cAMP Responsive Elements (CRE) small molecule agonists, cell-based qHTS assay (AID 1963590); conditions: CRE-bla HEK293T, beta-lactamase FRET ratio, 3 h; activation: at 92.4 µM (top of the series) unless noted; as to activation: % is scaled to controls: 0 for no effect and ±100 for the full control effect
Method in brief: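 Agonist mode qHTS in CRE-bla HEK 293T cells: compounds dosed from DMSO for 3 h at 37 C/5% CO2, followed by LiveBLAzer B/G FRET substrate for 2 h at room temperature.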

[7] = target: Beta-2 adrenergic receptor (Homo sapiens) (UniProt P07550); assay: Adrenergic beta2 receptor (ADRB2) small molecule antagonists, cell-based qHTS assay (AID 1963592); conditions: CHO-ADRB2 cells, isoproterenol-stimulated cAMP HTRF ratio, 0.5 h; activity change, negative = inhibition: at 92.4 µM (top of the series) unless noted; also: nearly all actives have a fitted effect of over 50% in size
Method in brief: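 Cells (CHO, stable ADRB2 overexpression) incubated 18-20hr at 37C; compounds added from DMSO; agonist mix (1nM isoproterenol, 100uM IBMX, 25uM Ro-20-1724) added; 0.5hr RT; d2-cAMP and anti-cAMP-cryptate added; 1hr RT; 665/615 nm read.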

[8] = target: 5-hydroxytryptamine receptor 2A (Homo sapiens) (UniProt P28223); assay: 5-hydroxytryptamine receptor 2A (HTR2A) small molecule agonists, cell-based qHTS assay (AID 1963587); also: nearly all actives have a fitted effect of over 30% in size
Method in brief: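 CHO cells stably expressing human HTR2A, plated 18 h, loaded with calcium dye 1 h at 37 C. Agonist mode: compounds added and intracellular calcium fluorescence recorded kinetically for 2 min at 1 sec intervals.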

[9] = target: Muscarinic acetylcholine receptor M1 (Homo sapiens) (UniProt P11229); assay: Cholinergic receptor muscarinic 1 (CHRM1) small molecule antagonists, cell-based qHTS assay (AID 1963588); also: nearly all actives have a fitted effect of over 40% in size
Method in brief: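 CHRM1-CHO calcium-flux assay, antagonist mode. Cells were seeded 18 h, dye-loaded 1 h at 37 C and given compound for 5 min at RT, then acetylcholine was added at 50nM. FDSS fluorescence was read 3 min; 15 concentrations, three runs.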

[10] = target: D(2) dopamine receptor (Homo sapiens) (UniProt P14416); assay: Dopamine D2 receptor (DRD2) small molecule agonists, cell-based qHTS assay (AID 1963594); conditions: HEK293-DRD2 cAMP HTRF, agonist mode, 30 min; activation: at 92.4 µM (top of the series) unless noted; also: nearly all actives have a fitted effect of over 35% in size
Method in brief: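 HEK293 cells stably expressing human DRD2, pre-treated with PDE inhibitor Ro20-1724 (0.1 mM final) and compound 10 min at room temperature, then stimulated with NKH477 (200nM […]) for 30 min. cAMP read by HTRF (665/620 nm).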

[11] = target: D(2) dopamine receptor (Homo sapiens) (UniProt P14416); assay: Dopamine D2 receptor (DRD2) small molecule antagonists, cell-based qHTS assay (AID 1963595; active = well fitted inhibition curve with a large enough effect in the signal ratio in the repeat runs, with a control signal flat; inconclusive = weak or mixed curves, or effect the other way; the % refers to the signal ratio); conditions: HEK293-DRD2 cAMP HTRF antagonist mode; activity change, negative = inhibition: at 92.4 µM (top of the series) unless noted
Method in brief: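 Human DRD2 antagonist qHTS measuring cAMP by HTRF. The cells are exposed to compound for 10 min, then to NKH477 (200 nM) and quinpirole (12 nM) for 30 min at RT, with Ro20-1724 (0.1 mM) present throughout.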

[12] = p53 small molecule agonists, cell-based qHTS assay (AID 1963582; active = well fitted activation curve with a large enough effect in the signal ratio in the repeat runs, not every such curve was filed as active; inconclusive = weak or mixed curves; the % refers to the signal ratio); conditions: HCT-116 p53RE-bla reporter, beta-lactamase FRET ratio, 16 h; activation: at 66 µM (top of the series) unless noted
Method in brief: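 Quantitative HTS in p53RE-bla cells: after a 5 h settling period, compounds delivered in DMSO were left on cells for 16 h at 37 C, and reporter induction was measured as fluorescence following 2 h substrate loading.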

[13] = target: 5-hydroxytryptamine receptor 2A (Homo sapiens) (UniProt P28223); assay: 5-hydroxytryptamine receptor 2A (HTR2A) small molecule antagonists, cell-based qHTS assay (AID 1963586); also: nearly all actives have a fitted effect of over 45% in size
Method in brief: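 Antagonist-mode intracellular calcium assay: DOI (4 nM) added after 5 min compound pre-incubation at room temperature to dye-loaded HTR2A-CHO cells. Fluorescence followed for 3 min, sampled every second.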

[14] = activation: at 92.4 µM (top of the series) unless noted
Potency is read from the fitted curve at half-maximal effect.

Which results are given for Clc1ccc2nsnc2c1NC1=NCCN1?
Potency [1]: inconclusive: 22.3 µM [rising, single point]; Potency [2]: inconclusive: 22.3 µM [cytotoxic, single point]; Potency [3]: inactive; Potency [4, 14]: inactive

For CCc1ncc(C)[nH]1, which activation [1] is on record?
The activation was inconclusive: 1.95%.

And the Potency [5]?
The Potency was inconclusive: 51.3 µM [rising, single point].

What about the Potency [6] of the same molecule?
Its Potency is “inactive”.

What about the activity change, negative = inhibition [3] of the same molecule?
Its activity change, negative = inhibition is inconclusive: 1.81%.

And the Potency [4, 14]?
Its Potency is “inactive”.

Which Potency [1] does the source give for COC(=O)C1=C(C)NC(C)=C(C(=O)OCC(C)=O)C1c1ccccc1[N+](=O)[O-] (stereo not given) here?
Its Potency is inconclusive: 8.9 µM [rising, single point].

And the Potency [2]?
The Potency was inconclusive: 8.9 µM [cytotoxic, single point].

And the Potency [3]?
Its Potency is “inactive”.

What about the Potency [4, 14] of the same molecule?
The Potency was inconclusive: 33.5 µM [activator, partial curve, poor fit].

For CC(=O)OCCC(C)CC(C)(C)C (stereo not given), which Potency [1] is on record?
The Potency was inconclusive: 51.3 µM [activator, single point].

What about the Potency [2] of the same molecule?
Its Potency is “inactive”.

And the Potency [7]?
The Potency was inconclusive: 77 µM [inhibitor, partial curve, poor fit].

What about the Potency [4, 14] of the same molecule?
Its Potency is “inactive”.

For CN1CCN(c2ccccc2/C=C2\SCCN(c3ccc(Cl)c(Cl)c3)C2=O)CC1, which Potency [1] is on record?
The Potency was inconclusive: 32.4 µM [rising, partial curve].

What about the Potency [5] of the same molecule?
The Potency was active: 45.8 µM.

And the Potency [8]?
The Potency was inconclusive: 38.9 µM [activator, partial curve].

And the Potency [9]?
Its Potency is active: 7.48 µM.

What about the Potency [3] of the same molecule?
The Potency was “inactive”.

What about the Potency [7] of the same molecule?
Its Potency is active: 0.77 µM.

And the Potency [4, 14]?
Its Potency is inconclusive: 0.154 µM [inhibitor, full curve].

What about the Potency [10] of the same molecule?
The Potency was inconclusive: 0.0243 µM [rising, full curve, poor fit].

What about the Potency [11] of the same molecule?
Its Potency is active: 54.5 µM.

For CCO[Si](CCCS)(OCC)OCC, which activation [1] is on record?
The activation was inconclusive: -12.9%.

And the Potency [2]?
The Potency was inconclusive: 51.3 µM [cytotoxic, single point].

And the Potency [4, 14]?
Its Potency is “inactive”.

Which results are given for Cc1c(-c2ccccc2)oc2c(C(=O)OCCN3CCCCC3)cccc2c1=O?
Potency [1]: inconclusive: 15.8 µM [fluorescent, partial curve]; Potency [2]: inactive; Potency [12]: inconclusive: 0.199 µM [falling, single point]; Potency [6]: inconclusive: 18.8 µM [rising, partial curve, poor fit]; Potency [4, 14]: inactive; Potency [11]: inconclusive: 33.5 µM [inhibitor]

With C=CC(=O)OCCCCCCCC(C)C as the molecule, how does the Potency [1] read?
The Potency was inconclusive: 45.7 µM [activator, single point].

And the Potency [5]?
Its Potency is inconclusive: 3.24 µM [cytotoxic, partial curve, poor fit].

And the Potency [3]?
Its Potency is inconclusive: 14.3 µM [inhibitor, single point].

Which Potency [1] does the source give for CCCCOCC here?
Its Potency is “inactive”.

What about the Potency [5] of the same molecule?
The Potency was active: 1.62 µM.

And the Potency [12]?
Its Potency is “inactive”.

What about the Potency [6] of the same molecule?
Its Potency is “inactive”.

And the Potency [4, 14]?
The Potency was inconclusive: 0.243 µM [inhibitor].

What does the source list for CC1=NN(c2ccc(S(=O)(=O)O)cc2)C(=O)C1?
Potency [1]: inactive; Potency [2]: inactive; Potency [6]: inactive; Potency [4, 14]: inactive; Potency [10]: inactive

With NCC1CCC(C(=O)Oc2ccc(CCC(=O)O)cc2)CC1 (stereo not given) as the molecule, how does the Potency [1] read?
The Potency was “inactive”.

And the Potency [5]?
Its Potency is “inactive”.

What about the Potency [3] of the same molecule?
The Potency was “inactive”.

And the activation [4, 14]?
Its activation is inconclusive: 28.1% [at 42.5 µM].

For CC(C)CC(=O)CC(C)CC(C)C (stereo not given), which Potency [1] is on record?
The Potency was “inactive”.

And the Potency [5]?
Its Potency is “inactive”.

And the Potency [13]?
The Potency was inconclusive: 0.0066 µM [inhibitor, full curve, poor fit].

What about the Potency [4, 14] of the same molecule?
The Potency was inconclusive: 0.483 µM [activator, partial curve, poor fit].

What about the activation [4, 14] of the same molecule?
Its activation is inconclusive: -21.5%.

Which Potency [1] does the source give for CCCCCCCCCCCCCCCO here?
Its Potency is inconclusive: 10.2 µM [fluorescent, full curve].

And the Potency [5]?
The Potency was inconclusive: 41.1 µM [cytotoxic, partial curve, poor fit].

And the Potency [12]?
The Potency was inconclusive: 10.3 µM [fluorescent, partial curve, poor fit].

And the Potency [13]?
Its Potency is inconclusive: 4.72 µM [inhibitor, single point].

And the Potency [4, 14]?
The Potency was inconclusive: 0.0977 µM [inhibitor, partial curve, poor fit].

And the activation [4, 14]?
Its activation is inconclusive: 24.2%.

For CCOc1ccc(NC(C)=O)cc1, which activation [1] is on record?
Its activation is inconclusive: 2.57% [at 30.3 µM].

And the Potency [5]?
The Potency was inconclusive: 1.68 µM [cytotoxic, single point].

What about the Potency [12] of the same molecule?
The Potency was “inactive”.

And the activation [4, 14]?
Its activation is inconclusive: 13.4%.

And the activation ([4]; at 42.5 µM (top of the series))?
Its activation is inactive: 3.82%.

What about the activation ([4]; at 92.4 µM (top of the series)) of the same molecule?
Its activation is inactive: -7%.

With Cc1ccc(S(=O)(=O)O)cc1C as the molecule, how does the activation [1] read?
The activation was inconclusive: 12.6%.

And the Potency [2]?
The Potency was inconclusive: 40.8 µM [rising, partial curve, poor fit].

And the Potency [12]?
Its Potency is “inactive”.

What about the Potency [3] of the same molecule?
The Potency was “inactive”.

And the Potency [4, 14]?
Its Potency is “inactive”.

And the activation [10]?
Its activation is inconclusive: -18.1%.
